Results are given in words; binding and its absence hold for the method and conditions named. In cells and extracts the contact can be indirect. Some results given as binding are weak or reduced against the parent protein; the word gives no strength.

The chains behind the UniProt entries cited, without tags or fusion partners.
UniProt Q9BSK0: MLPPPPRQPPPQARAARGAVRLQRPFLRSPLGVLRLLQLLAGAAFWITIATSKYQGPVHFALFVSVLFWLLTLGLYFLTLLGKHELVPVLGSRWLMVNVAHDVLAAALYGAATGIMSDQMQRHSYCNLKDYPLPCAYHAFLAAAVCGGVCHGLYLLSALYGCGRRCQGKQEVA
UniProt Q96Q15: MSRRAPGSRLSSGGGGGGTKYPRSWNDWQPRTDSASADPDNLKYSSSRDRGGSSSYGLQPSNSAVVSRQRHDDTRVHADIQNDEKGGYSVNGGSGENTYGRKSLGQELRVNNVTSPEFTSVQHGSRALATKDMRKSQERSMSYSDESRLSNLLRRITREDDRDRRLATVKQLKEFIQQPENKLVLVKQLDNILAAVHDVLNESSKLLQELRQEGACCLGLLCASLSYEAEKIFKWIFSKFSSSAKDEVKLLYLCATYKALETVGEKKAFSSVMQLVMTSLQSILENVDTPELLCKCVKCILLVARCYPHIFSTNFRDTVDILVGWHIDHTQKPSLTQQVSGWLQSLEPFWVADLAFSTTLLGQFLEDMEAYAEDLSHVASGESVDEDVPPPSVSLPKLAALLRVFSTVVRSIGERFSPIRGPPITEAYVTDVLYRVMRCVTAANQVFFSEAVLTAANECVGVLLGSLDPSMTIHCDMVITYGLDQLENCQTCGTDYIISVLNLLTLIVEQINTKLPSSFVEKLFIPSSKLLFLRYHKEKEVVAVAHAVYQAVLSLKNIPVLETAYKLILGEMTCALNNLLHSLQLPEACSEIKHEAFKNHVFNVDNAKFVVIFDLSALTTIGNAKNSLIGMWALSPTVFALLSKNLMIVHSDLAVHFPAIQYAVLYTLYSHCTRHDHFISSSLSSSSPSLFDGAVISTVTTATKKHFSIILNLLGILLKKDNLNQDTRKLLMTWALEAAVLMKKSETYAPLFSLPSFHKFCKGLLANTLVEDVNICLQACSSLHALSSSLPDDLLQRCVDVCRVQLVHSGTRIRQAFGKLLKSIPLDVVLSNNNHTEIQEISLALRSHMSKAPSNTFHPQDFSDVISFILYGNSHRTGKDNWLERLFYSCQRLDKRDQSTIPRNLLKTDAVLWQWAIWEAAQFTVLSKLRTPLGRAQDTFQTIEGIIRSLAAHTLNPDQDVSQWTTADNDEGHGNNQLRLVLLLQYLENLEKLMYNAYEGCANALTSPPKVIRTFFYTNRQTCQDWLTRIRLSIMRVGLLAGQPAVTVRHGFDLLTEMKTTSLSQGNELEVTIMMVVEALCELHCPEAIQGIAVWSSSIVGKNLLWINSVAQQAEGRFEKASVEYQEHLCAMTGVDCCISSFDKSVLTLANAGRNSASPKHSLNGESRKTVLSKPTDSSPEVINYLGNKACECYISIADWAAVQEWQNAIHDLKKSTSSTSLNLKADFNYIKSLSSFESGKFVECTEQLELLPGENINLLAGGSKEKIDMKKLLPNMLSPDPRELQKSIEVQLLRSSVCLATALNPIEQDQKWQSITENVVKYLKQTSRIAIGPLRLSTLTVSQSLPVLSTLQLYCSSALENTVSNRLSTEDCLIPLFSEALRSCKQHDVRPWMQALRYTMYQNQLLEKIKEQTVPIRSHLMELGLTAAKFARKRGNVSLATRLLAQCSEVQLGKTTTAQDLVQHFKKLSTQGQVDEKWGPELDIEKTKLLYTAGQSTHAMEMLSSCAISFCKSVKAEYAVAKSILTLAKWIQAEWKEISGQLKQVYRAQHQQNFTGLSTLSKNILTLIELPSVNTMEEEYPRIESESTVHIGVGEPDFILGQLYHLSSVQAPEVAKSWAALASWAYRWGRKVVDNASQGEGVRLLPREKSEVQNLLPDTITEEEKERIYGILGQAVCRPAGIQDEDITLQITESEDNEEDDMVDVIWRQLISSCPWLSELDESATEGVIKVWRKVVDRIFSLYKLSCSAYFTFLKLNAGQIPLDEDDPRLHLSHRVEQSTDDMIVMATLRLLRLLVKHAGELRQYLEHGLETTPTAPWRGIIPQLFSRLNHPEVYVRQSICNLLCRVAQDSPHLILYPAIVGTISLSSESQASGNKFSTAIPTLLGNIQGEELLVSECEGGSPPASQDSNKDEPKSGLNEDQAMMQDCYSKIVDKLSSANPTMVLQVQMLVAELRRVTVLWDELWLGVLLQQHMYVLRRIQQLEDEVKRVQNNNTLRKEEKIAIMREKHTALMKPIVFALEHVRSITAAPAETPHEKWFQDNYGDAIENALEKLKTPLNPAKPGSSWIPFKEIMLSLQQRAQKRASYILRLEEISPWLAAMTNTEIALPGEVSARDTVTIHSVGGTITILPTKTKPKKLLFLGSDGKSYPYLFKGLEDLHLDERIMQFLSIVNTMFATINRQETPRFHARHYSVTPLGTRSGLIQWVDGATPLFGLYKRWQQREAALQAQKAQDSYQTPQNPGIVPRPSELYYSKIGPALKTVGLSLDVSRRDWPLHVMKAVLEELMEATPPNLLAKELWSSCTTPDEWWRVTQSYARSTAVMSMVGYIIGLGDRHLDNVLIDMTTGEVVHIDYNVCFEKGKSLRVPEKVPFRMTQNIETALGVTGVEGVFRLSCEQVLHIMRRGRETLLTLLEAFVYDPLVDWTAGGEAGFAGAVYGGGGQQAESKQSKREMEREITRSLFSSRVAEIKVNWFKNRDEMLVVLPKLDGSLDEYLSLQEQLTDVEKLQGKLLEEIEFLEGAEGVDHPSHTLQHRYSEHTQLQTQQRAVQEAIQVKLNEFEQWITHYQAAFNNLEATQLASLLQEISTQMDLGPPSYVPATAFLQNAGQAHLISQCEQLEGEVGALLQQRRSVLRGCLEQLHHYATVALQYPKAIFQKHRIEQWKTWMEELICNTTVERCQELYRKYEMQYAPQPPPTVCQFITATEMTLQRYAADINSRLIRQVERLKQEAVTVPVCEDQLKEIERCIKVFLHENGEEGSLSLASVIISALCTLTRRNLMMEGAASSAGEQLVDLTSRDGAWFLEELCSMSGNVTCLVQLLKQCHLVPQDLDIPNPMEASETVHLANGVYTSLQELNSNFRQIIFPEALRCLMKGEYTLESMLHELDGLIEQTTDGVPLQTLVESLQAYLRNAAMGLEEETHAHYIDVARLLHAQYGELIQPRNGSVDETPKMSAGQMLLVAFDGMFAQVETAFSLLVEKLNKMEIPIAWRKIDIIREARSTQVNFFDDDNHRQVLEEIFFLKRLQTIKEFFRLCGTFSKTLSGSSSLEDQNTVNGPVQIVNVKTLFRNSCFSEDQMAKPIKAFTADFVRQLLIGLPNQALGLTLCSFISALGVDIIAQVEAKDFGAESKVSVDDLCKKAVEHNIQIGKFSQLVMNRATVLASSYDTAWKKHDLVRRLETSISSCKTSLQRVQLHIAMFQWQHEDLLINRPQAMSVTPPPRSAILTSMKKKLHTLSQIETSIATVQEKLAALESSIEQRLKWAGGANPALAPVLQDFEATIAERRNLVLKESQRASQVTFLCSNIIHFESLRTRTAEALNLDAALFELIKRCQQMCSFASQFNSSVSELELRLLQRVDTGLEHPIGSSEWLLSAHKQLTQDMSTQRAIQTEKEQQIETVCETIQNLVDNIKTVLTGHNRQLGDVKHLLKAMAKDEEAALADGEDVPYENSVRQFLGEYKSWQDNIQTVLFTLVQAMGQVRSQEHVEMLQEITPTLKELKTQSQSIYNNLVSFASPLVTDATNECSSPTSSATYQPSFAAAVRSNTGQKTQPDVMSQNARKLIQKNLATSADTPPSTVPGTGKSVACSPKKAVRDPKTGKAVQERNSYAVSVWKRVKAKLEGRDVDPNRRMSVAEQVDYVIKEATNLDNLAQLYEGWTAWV

In the experiment the target is MARVELD1 (MARVEL domain containing 1) (human (endogenous in NCI-H292 and NCI-H520)) (UniProt Q9BSK0). The experiment is described as follows: co-IP; whole cell lysates of NCI-H292 and NCI-H520 (1 x 10^7 cells, RIPA lysis buffer with protease inhibitors); MARVELD1 antibody (Abcam) at 4°C for 12 h, Protein A Sepharose CL-4B beads 2 h, washed 3 times with RIPA buffer; control rabbit IgG; western blotting.

Consider “SMG1 (from UniProt Q96Q15 1-3661) (enzyme)”, for which the binding result is reported as “binds”.

The record behind these values is paper PMC4269892.
